Measurements as given in US20240287188A1 (KUMHO HT, published 2024).
These are yes or no findings as the source states them, for the method shown. Some results given as binding are weak or reduced against the parent protein; the word gives no strength.

Chains of the proteins cited; added tags and fusions are not shown. Residues count along the entry.
UniProt P05362, residues 28-480: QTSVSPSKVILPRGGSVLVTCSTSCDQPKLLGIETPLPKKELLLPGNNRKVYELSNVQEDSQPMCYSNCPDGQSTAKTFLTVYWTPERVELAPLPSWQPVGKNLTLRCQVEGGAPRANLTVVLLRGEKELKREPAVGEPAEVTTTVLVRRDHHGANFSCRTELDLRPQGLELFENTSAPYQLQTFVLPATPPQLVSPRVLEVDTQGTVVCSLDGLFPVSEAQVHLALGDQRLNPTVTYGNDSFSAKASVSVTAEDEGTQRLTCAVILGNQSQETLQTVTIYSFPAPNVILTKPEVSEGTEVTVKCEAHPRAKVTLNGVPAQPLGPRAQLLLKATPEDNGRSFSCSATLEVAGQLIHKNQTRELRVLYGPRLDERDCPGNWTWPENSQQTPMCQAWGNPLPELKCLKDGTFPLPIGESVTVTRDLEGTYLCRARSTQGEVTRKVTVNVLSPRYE

B1: humanized anti-ICAM-1 antibody H17L3 (VH17 + VL3), human IgG4/kappa (antibody, V domains shown)
VH: QVQLVQSGAEVKKPGASVKISCKGSGYTFTDYALHWVRQAPGQRLEWMGVISTYSGNTDYNQKFRGRATITVDTSASTAYMELSSLRSEDTAVYYCARSLYFGSSGFDYWGQGTALTVSS
VL: DVVLTQTPLSSPVTLGQPASISCRSSQTLVYRNGNTYLHWYLQRAGQPPRLLIYKVSNRFSGVPDRFSGSGAGTDFTLKISRVEAEDVGVYFCSQNTHFPYTFGGGTKLEIKT
notes: The Arg at the VL/CL junction is in neither entry
B2: humanized anti-ICAM-1 antibody H4L3 (VH4 + VL3), human IgG4/kappa (antibody, V domains shown)
VH: QVQLVQSGAEVKKPGASVKVSCKASGYTFTDYALHWVRQAPGQRLEWIGVISTYSGNTDYNQKFRGRVTMTRDTSATTAYLELSSLRSEDTAVYYCARSLYFGSSGFDYWGQGTALTVSS
VL: DVVLTQTPLSSPVTLGQPASISCRSSQTLVYRNGNTYLHWYLQRAGQPPRLLIYKVSNRFSGVPDRFSGSGAGTDFTLKISRVEAEDVGVYFCSQNTHFPYTFGGGTKLEIKT
notes: as for B1
B3: humanized anti-ICAM-1 antibody H5L3 (VH5 + VL3), human IgG4/kappa (antibody, V domains shown)
VH: QVQLVQSGAEVKKPGASVKISCKASGYTFTDYALHWVRQAPGQRLEWMGVISTYSGNTDYNQKFRGRVTITVDKSATTAYMELSSLRSEDTAVYYCARSLYFGSSGFDYWGQGTALTVSS
VL: DVVLTQTPLSSPVTLGQPASISCRSSQTLVYRNGNTYLHWYLQRAGQPPRLLIYKVSNRFSGVPDRFSGSGAGTDFTLKISRVEAEDVGVYFCSQNTHFPYTFGGGTKLEIKT
notes: as for B1
B4: humanized anti-ICAM-1 antibody H17L1 (VH17 + VL1), human IgG4/kappa (antibody, V domains shown)
VH: QVQLVQSGAEVKKPGASVKISCKGSGYTFTDYALHWVRQAPGQRLEWMGVISTYSGNTDYNQKFRGRATITVDTSASTAYMELSSLRSEDTAVYYCARSLYFGSSGFDYWGQGTALTVSS
VL: DVVLTQSPLSLPVTLGQPASISCRSSQTLVYRNGNTYLHWYQQRPGQSPRLLIYKVSNRFSGVPDRFSGSGSGTDFTLKISRVEAEDVGVYFCSQNTHFPYTFGGGTKLEIKT
B5: humanized anti-ICAM-1 antibody H17L4 (VH17 + VL4), human IgG4/kappa (antibody, V domains shown)
VH: QVQLVQSGAEVKKPGASVKISCKGSGYTFTDYALHWVRQAPGQRLEWMGVISTYSGNTDYNQKFRGRATITVDTSASTAYMELSSLRSEDTAVYYCARSLYFGSSGFDYWGQGTALTVSS
VL: DVVLTQTPLSSPVTLGQPASISCRSSQTLVYRNGNTYLHWYQQRPGQPPRLLIYKVSNRFSGVPDRFSGSGAGTDFTLKISRVEAEDVGVYFCSQNTHFPYTFGGGTKLEIKT
notes: The Arg at the VL/CL junction is in neither entry; also called DNP007; DNP007 antibody (H17L4 antibody)

What was measured:
[1] = molecular target: T1, ICAM-1 protein antigen (R&D System) (human, UniProt P05362 28-480); assay: ELISA, ICAM-1 coated 100 ng/well
T1 construct: The assay paragraphs say only 'ICAM-1 (R&D System)'; also called antigen ICAM-1; ICAM-1 antigen

[2] = molecular target: T1, ICAM-1 protein antigen (R&D System); assay: Octet (BLI), antibody on AR2G biosensor, ICAM-1 antigen in solution at 5 concentrations

Binder | binding [1] | binding [2]
B1 | binds | 
B2 | binds | 
B3 | binds | 
B4 | binds | binds
B5 | binds | binds
